Earlier results, collected in patent US6890951B2, “Treatment of addiction and addiction-related behavior” (Brookhaven Science Associates LLC, priority 1998, dated 2005).
At least one compound was matched to its structure with a doubt left.

Assays:
male Wistar rats = conditions: chlordiazepoxide; cited from earlier work
GABAA receptor complex = conditions: in vivo; cited from earlier work

Structure (SMILES): CNC1=Nc2ccc(Cl)cc2C(c2ccccc2)=[N+]([O-])C1 [chlordiazepoxide]
- break point for cocaine self-administration on a progressive ratio schedule (male Wistar rats): increase the break point
- rate of cocaine self-administration (GABAA receptor complex): decreased the rate of cocaine self-administration
